Results deposited as PubChem BioAssay AID686938 (Drosophila RNAi Screening Center, 2013)

Aim: 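Looking for CRAC channel components and the factors controlling them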 (primary screen)
Cells: Drosophila S2R+ cells
Reagents: long dsRNA against Drosophila genes, about 0.25 µg dsRNA per well, roughly 10,000 cells
Duration: 5 days of knock-down before the calcium assay
Treatment: thapsigargin (SERCA pump blocker) to empty calcium stores; entry signal taken 4 min after adding it
Read-out: 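Duplicate raw fluo-4 intensities per well from a plate reader, at rest and four minutes after thapsigargin emptied calcium stores; entry-to-rest ratio filled for only some wells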
Direction: calcium entry signal: higher = stronger calcium signal after store depletion; entry to resting ratio: higher = more calcium entry relative to resting level; resting calcium signal: higher = higher resting calcium signal
Active means: 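Called when the plate z-score of the entry-to-rest ratio, mean of duplicates, falls below −3; wells with low overall dye signal (Fmax z below −2) or more than five off-targets excluded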
Meaning of the calls: active = strongly reduced calcium entry; inactive = no strong reduction
The deposit covers about 23,000 reagents; shown is a random part of those with a known target gene and a result. In the full data, 75 (0.33%) got an active call. 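Raw plate signals without normalisation; calls rest on plate z-scores that were not deposited; ratio present for only 364 wells.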 Names joined by + are all predicted targets of the reagent. Not stated in the record: the dose of the treatment.

gene | dsRNA | calcium entry signal, replicate 1 (fluorescence units) | calcium entry signal, replicate 2 (fluorescence units) | entry to resting ratio | resting calcium signal, replicate 1 (fluorescence units) | resting calcium signal, replicate 2 (fluorescence units) | Outcome
CG7646 (GeneID 40187) | DRSC11232 | 3.27e7 | 5.21e7 | – | 1.55e7 | 2.00e7 | inactive
mnb (GeneID 32771) | DRSC20058 | 1.96e7 | 1.97e7 | – | 1.25e7 | 1.20e7 | inactive
mnb (GeneID 32771) | DRSC20353 | 2.60e7 | 3.20e7 | – | 1.40e7 | 1.59e7 | inactive
mnb (GeneID 32771) | DRSC23347 | 3.02e7 | 2.95e7 | – | 2.03e7 | 1.52e7 | inactive
BBS4 (GeneID 36167) | DRSC06352 | 5.38e7 | 3.56e7 | – | 2.47e7 | 1.78e7 | inactive
mex1 (GeneID 39677) | DRSC11368 | 5.52e7 | 5.14e7 | – | 2.32e7 | 2.00e7 | inactive
CG11333 (GeneID 43714) | DRSC14301 | 3.55e7 | 4.01e7 | 2.2 | 1.59e7 | 1.61e7 | inactive
Best3 (GeneID 39661) | DRSC09880 | 3.83e7 | 4.11e7 | – | 1.85e7 | 1.54e7 | inactive
ATPCL (GeneID 36760) | DRSC05913 | 3.88e7 | 5.22e7 | – | 1.80e7 | 2.34e7 | inactive
Picot (GeneID 36865) | DRSC07508 | 4.26e7 | 4.40e7 | – | 1.83e7 | 2.08e7 | inactive
CG30389 (GeneID 37410) | DRSC04077 | 4.71e7 | – | – | 2.61e7 | – | inactive
CG30389 (GeneID 37410) | DRSC04452 | 3.83e7 | 4.38e7 | – | 2.02e7 | 1.90e7 | inactive
Rnmt (GeneID 34877) | DRSC03558 | 3.88e7 | 1.97e7 | – | 1.73e7 | 1.13e7 | inactive
TwdlB (GeneID 43202) | DRSC16050 | 1.58e7 | 3.49e7 | – | 9.43e6 | 1.56e7 | inactive
CG3902 (GeneID 40059) | DRSC10387 | 1.99e7 | 3.87e7 | – | 1.05e7 | 1.62e7 | inactive
Cyp6a17 (GeneID 45556) | DRSC07378 | 4.37e7 | 4.25e7 | – | 2.01e7 | 2.09e7 | inactive
Ge-1 (GeneID 34541) | DRSC02938 | 4.72e7 | – | – | 2.43e7 | – | inactive
EMC1 (GeneID 40933) | DRSC15455 | 2.36e7 | 2.54e7 | – | 8.64e6 | 1.21e7 | inactive
CG31457 (GeneID 326142) | DRSC22935 | 5.35e7 | 4.17e7 | – | 2.79e7 | 2.00e7 | inactive
LManIII (GeneID 34203) | DRSC03221 | 2.58e7 | 4.18e7 | – | 1.20e7 | 1.78e7 | inactive
Muc14A (GeneID 318097) | DRSC23264 | 2.94e7 | 3.01e7 | – | 1.40e7 | 1.27e7 | inactive
H (GeneID 42445) | DRSC16692 | 3.75e7 | 3.80e7 | – | 4.70e7 | 1.65e7 | inactive
CG4116 (GeneID 31291) | DRSC18348 | 4.64e7 | 6.60e7 | 1.9 | 2.42e7 | 2.60e7 | inactive
Tsp42Ek (GeneID 35621) | DRSC06187 | 3.46e7 | 3.66e7 | – | 1.72e7 | 1.81e7 | inactive

Limited to “resting calcium signal, replicate 2 (fluorescence units)”, for 4 of the entries above:
CG11333 (GeneID 43714) [DRSC14301]	1.61e7
Best3 (GeneID 39661) [DRSC09880]	1.54e7
ATPCL (GeneID 36760) [DRSC05913]	2.34e7
Picot (GeneID 36865) [DRSC07508]	2.08e7

Next reagents follow.
gene | dsRNA | calcium entry signal, replicate 1 (fluorescence units) | calcium entry signal, replicate 2 (fluorescence units) | entry to resting ratio | resting calcium signal, replicate 1 (fluorescence units) | resting calcium signal, replicate 2 (fluorescence units) | Outcome
CG17752 (GeneID 42337) | DRSC15262 | 3.94e7 | 3.87e7 | – | 6.64e7 | 1.81e7 | inactive
wry (GeneID 33361) | DRSC00352 | 3.15e7 | 3.71e7 | – | 1.53e7 | 1.67e7 | inactive
wry (GeneID 33361) | DRSC00456 | 3.15e7 | 3.78e7 | – | 1.55e7 | 1.79e7 | inactive
wry (GeneID 33361) | DRSC22414 | 3.00e7 | 3.44e7 | – | 1.45e7 | 1.48e7 | inactive
Kaz-m1 (GeneID 43154) | DRSC16990 | 3.05e7 | 6.61e7 | – | 1.71e7 | 2.73e7 | inactive
Polr1D + DCTN6-p27 | DRSC02094 | 2.32e7 | 3.20e7 | – | 1.29e7 | 1.60e7 | inactive
side-VIII (GeneID 37310) | DRSC05880 | 3.36e7 | 3.87e7 | – | 1.70e7 | 3.47e7 | inactive
side-VIII (GeneID 37310) | DRSC05883 | 2.22e7 | 4.59e7 | – | 1.09e7 | 4.12e7 | inactive
side-VIII (GeneID 37310) | DRSC06157 | 4.02e7 | 4.35e7 | – | 1.83e7 | 2.40e7 | inactive
side-VIII (GeneID 37310) | DRSC23187 | 5.14e7 | 3.69e7 | – | 2.56e7 | 1.54e7 | inactive
CG32984 (GeneID 34218) | DRSC21602 | 2.30e7 | 3.06e7 | – | 1.27e7 | 1.36e7 | inactive
CG4630 (GeneID 36458) | DRSC06874 | 2.24e7 | 2.81e7 | – | 1.09e7 | 1.32e7 | inactive
sli (GeneID 36746) | DRSC07684 | 3.30e7 | 3.24e7 | – | 1.39e7 | 1.49e7 | inactive
sli (GeneID 36746) | DRSC22936 | 4.68e7 | 4.04e7 | – | 2.24e7 | 1.80e7 | inactive
CG7115 (GeneID 34069) | DRSC02000 | 3.16e7 | 4.30e7 | – | 1.43e7 | 1.80e7 | inactive
Sec15 (GeneID 42499) | DRSC16179 | 3.69e7 | 3.18e7 | – | 2.44e7 | 5.63e7 | inactive
asRNA:CR43259 + CG31089 | DRSC15934 | 4.19e7 | 5.50e7 | – | 2.17e7 | 2.25e7 | inactive
CG16721 (GeneID 31520) | DRSC18113 | 2.64e7 | 2.87e7 | – | 1.26e7 | 1.35e7 | inactive
Sec5 (GeneID 33563) | DRSC00714 | 4.10e7 | – | – | 2.35e7 | – | inactive
CG12783 (GeneID 42019) | DRSC14538 | 2.14e7 | 2.34e7 | – | 1.11e7 | 3.31e7 | inactive
Ugt36F1 (GeneID 35137) | DRSC02601 | 3.34e7 | 4.03e7 | – | 1.63e7 | 1.67e7 | inactive
Drgx (GeneID 5740176) | DRSC00278 | 3.93e7 | 3.64e7 | – | 1.97e7 | 1.74e7 | inactive
Drgx (GeneID 5740176) | DRSC00537 | 4.34e7 | 3.44e7 | – | 1.99e7 | 1.75e7 | inactive
m-cup (GeneID 42076) | DRSC14430 | 3.02e7 | 5.29e7 | – | 1.51e7 | 7.02e7 | inactive
Dup99B (GeneID 2768691) | DRSC22877 | 5.82e7 | 3.17e7 | – | 2.56e7 | 1.37e7 | inactive
Xxylt (GeneID 37833) | DRSC04107 | 4.21e7 | – | – | 2.13e7 | – | inactive
Cdk8 (GeneID 39157) | DRSC11113 | 4.93e7 | 2.83e7 | – | 2.86e7 | 1.43e7 | inactive
Ir84a (GeneID 40891) | DRSC12510 | 2.64e7 | 2.10e7 | – | 1.35e7 | 1.10e7 | inactive
DnaJ-1 (GeneID 38643) | DRSC11145 | 3.60e7 | 2.70e7 | – | 2.50e7 | 1.16e7 | inactive
MED10 (GeneID 39777) | DRSC10474 | 2.97e7 | 3.22e7 | – | 1.48e7 | 1.48e7 | inactive
RpL5 (GeneID 3355124) | DRSC03801 | 1.34e7 | 1.61e7 | – | 1.06e7 | 1.08e7 | inactive
CG14655 (GeneID 40594) | DRSC12241 | 5.42e7 | 2.75e7 | – | 2.75e7 | 1.42e7 | inactive
CG15296 (GeneID 31986) | DRSC17983 | 3.66e7 | 5.70e7 | – | 1.79e7 | 2.61e7 | inactive
CG14011 (GeneID 33790) | DRSC02343 | 2.70e7 | 2.63e7 | – | 1.38e7 | 1.33e7 | inactive
